The record followed here is publication PMC5717335.

By UniProt entry, the sequences of proteins in these tests, tags left out. Where a name states a change or a piece, a line headed by the entry shows the natural chain unless it says otherwise.
UniProt Q96IK1: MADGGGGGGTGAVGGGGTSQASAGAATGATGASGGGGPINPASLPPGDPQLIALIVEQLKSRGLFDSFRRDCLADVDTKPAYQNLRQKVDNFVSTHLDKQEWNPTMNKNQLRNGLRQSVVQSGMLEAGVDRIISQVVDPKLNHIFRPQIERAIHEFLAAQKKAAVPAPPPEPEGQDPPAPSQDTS
UniProt O14777: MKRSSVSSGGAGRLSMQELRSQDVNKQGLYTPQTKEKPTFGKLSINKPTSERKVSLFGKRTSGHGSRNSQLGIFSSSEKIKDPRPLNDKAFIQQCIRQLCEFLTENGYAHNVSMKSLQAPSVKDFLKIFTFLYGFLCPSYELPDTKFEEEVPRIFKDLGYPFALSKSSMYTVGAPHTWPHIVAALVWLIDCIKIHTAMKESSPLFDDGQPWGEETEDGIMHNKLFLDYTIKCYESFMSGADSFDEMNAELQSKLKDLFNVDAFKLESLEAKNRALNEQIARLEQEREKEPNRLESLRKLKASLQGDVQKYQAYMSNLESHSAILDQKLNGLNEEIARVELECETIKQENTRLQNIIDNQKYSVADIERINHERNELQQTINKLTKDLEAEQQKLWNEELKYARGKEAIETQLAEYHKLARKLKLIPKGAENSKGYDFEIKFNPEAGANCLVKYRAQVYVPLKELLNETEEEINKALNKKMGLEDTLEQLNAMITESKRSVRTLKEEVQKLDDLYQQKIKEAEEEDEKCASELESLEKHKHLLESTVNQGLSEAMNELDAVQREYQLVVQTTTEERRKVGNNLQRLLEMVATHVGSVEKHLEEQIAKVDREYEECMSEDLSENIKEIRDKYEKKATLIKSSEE
UniProt Q9BZD4: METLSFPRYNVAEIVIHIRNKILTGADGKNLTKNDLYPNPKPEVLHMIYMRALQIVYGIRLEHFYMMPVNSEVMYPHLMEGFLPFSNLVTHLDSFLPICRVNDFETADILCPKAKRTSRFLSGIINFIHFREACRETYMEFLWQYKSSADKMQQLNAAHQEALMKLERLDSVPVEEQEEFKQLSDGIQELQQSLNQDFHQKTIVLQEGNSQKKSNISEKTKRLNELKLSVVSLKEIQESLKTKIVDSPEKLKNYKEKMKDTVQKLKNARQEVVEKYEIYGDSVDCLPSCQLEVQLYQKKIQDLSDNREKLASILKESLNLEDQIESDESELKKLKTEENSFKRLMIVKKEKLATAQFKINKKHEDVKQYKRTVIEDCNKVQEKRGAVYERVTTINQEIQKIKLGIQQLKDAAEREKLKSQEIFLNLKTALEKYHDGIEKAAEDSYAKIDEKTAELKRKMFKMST
UniProt Q8NBT2: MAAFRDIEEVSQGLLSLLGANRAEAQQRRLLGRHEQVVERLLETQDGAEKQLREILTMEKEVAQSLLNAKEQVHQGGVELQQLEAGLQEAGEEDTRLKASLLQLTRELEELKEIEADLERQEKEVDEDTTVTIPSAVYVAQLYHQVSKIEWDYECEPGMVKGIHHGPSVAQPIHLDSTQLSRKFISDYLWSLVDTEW

No constants are given. Whether binding was seen depends on the method and setting. For some of these results: In cells and extracts the contact can be indirect. Some entries that bind do so weakly or less than the wild type.

One assay addresses Bod1-GST (human) (UniProt Q96IK1). Briefly: pull-down; purified Bod1-GST on Sepharose beads incubated with mitotic HeLa cell lysates; immunoblot for Ndc80, Nuf2 and Spc24; only the target purified. (In general: In western blotting, separated proteins are transferred to a membrane and probed.)
The target of assay [1] is Ndc80/Nuf2–GST dimer (UniProt O14777). The assay can be described thus: pull-down; 150 pmol Ndc80/Nuf2-GST dimer or Spc24-GST/Spc25 dimer immobilised on Sepharose beads, incubated with 1 nmol Bod1-MBP or MBP for 1 h; SDS-PAGE and immunoblot for MBP and GST; bound protein quantified relative to the input; n = 4; both purified.
For assay [2] the target is unchanged. Briefly: pull-down; Bod1-MBP with recombinant Ndc80/Nuf2–GST dimer or Spc24–GST/Spc25 dimer (supplementary figure S5b,c); conditions not shown; both purified.

Nuf2 (from UniProt Q9BZD4 1-464): the binding result with Bod1-GST (human) is given as “binds”.

For the substance Bod1-MBP (from UniProt Q96IK1 1-185), the binding entry in the assay with Ndc80/Nuf2–GST dimer [1] and with Ndc80/Nuf2–GST dimer [2] was “binds” each time.

Consider Spc24 (from UniProt Q8NBT2 1-197), for which the binding result with Bod1-GST (human) is reported as “binds”.
